Data from the supplement of paper PMC10849652.
The list shows a part of the results.

Protein sequences, listed by entry. Tags and fused reporters are not part of them. Lines headed by an entry give the natural chain unless they say otherwise; changes in a name come on top.
UniProt Q9H6S3: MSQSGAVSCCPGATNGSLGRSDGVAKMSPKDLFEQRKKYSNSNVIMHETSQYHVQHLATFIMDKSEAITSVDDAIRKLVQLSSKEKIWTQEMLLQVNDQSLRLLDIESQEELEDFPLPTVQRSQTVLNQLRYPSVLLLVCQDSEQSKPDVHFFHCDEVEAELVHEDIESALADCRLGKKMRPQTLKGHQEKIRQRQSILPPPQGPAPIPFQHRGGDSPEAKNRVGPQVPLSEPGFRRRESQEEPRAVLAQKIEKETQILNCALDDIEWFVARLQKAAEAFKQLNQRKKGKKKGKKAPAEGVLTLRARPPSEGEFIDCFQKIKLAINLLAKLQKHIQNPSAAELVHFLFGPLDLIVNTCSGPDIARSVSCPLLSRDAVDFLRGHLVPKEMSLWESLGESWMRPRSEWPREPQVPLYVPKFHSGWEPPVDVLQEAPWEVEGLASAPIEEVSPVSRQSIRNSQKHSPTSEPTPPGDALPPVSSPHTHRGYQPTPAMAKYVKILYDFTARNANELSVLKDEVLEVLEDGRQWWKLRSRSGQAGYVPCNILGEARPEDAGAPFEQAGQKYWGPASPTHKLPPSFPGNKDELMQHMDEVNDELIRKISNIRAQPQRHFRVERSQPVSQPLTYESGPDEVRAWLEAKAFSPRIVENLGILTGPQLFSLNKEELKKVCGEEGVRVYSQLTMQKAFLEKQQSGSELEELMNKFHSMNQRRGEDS
UniProt Q14240, whole entry, looked up: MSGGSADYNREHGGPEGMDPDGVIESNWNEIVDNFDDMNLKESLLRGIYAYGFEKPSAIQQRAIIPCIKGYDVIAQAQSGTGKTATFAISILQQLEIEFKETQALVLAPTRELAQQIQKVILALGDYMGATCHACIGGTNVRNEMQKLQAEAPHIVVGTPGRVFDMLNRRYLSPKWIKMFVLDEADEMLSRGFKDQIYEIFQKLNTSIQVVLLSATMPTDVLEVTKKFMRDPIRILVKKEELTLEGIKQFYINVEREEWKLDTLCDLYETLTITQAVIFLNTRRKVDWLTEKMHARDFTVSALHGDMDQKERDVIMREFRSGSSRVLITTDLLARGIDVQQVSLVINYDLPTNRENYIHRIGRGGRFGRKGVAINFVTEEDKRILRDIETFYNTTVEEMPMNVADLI
UniProt Q9NPA8: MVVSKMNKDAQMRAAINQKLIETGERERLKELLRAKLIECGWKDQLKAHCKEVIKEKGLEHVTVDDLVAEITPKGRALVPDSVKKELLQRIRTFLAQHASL
UniProt Q05BV3: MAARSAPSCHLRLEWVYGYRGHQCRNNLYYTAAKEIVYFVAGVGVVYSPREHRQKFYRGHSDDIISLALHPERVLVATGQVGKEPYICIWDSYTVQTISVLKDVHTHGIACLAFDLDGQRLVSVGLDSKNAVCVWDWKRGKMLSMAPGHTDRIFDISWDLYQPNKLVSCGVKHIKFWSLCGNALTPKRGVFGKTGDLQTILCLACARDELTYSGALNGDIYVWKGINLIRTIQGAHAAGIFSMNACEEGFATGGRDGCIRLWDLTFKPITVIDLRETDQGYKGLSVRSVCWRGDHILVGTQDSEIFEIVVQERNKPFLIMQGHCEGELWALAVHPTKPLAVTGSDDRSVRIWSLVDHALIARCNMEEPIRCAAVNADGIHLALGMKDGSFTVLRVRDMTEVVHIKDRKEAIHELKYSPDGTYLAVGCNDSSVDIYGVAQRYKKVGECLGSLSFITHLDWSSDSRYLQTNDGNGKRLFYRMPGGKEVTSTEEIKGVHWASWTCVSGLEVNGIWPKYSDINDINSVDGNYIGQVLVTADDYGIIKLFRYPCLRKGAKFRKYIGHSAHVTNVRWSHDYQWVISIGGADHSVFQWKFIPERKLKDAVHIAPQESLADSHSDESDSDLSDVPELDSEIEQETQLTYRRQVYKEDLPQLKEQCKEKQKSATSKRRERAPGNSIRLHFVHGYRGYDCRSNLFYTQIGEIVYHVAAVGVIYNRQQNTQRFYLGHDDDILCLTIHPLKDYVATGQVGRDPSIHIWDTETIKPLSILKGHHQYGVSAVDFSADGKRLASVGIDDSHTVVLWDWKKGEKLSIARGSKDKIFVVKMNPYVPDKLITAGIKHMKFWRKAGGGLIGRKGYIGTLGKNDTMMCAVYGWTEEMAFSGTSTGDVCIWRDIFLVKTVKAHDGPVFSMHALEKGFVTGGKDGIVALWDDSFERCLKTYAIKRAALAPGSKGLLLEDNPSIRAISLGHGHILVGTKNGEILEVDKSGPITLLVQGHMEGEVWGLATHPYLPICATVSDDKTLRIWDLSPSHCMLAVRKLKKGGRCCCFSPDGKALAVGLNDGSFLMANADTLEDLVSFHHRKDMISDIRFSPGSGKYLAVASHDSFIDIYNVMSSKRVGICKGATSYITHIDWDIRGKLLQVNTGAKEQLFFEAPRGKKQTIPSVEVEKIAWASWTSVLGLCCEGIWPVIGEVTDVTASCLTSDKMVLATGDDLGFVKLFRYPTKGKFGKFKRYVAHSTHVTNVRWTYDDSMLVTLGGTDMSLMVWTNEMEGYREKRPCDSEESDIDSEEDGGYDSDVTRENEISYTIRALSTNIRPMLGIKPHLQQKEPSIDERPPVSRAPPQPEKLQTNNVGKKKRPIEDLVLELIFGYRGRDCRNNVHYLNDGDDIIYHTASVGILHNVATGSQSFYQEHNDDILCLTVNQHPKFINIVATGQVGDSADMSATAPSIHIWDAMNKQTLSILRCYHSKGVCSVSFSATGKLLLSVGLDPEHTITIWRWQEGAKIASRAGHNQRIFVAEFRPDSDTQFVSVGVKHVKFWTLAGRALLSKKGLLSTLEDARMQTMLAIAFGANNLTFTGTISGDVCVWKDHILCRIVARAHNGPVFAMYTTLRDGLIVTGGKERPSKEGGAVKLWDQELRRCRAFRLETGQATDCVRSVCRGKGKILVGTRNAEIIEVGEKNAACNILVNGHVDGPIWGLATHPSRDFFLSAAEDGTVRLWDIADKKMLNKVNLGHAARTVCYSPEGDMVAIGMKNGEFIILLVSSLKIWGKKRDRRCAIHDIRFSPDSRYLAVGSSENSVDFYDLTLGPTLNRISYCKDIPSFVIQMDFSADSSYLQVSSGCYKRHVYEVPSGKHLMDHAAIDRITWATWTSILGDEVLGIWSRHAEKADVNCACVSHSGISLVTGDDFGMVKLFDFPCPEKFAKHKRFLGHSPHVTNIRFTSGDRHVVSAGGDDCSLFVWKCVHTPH
UniProt Q9H2F5, whole entry, looked up: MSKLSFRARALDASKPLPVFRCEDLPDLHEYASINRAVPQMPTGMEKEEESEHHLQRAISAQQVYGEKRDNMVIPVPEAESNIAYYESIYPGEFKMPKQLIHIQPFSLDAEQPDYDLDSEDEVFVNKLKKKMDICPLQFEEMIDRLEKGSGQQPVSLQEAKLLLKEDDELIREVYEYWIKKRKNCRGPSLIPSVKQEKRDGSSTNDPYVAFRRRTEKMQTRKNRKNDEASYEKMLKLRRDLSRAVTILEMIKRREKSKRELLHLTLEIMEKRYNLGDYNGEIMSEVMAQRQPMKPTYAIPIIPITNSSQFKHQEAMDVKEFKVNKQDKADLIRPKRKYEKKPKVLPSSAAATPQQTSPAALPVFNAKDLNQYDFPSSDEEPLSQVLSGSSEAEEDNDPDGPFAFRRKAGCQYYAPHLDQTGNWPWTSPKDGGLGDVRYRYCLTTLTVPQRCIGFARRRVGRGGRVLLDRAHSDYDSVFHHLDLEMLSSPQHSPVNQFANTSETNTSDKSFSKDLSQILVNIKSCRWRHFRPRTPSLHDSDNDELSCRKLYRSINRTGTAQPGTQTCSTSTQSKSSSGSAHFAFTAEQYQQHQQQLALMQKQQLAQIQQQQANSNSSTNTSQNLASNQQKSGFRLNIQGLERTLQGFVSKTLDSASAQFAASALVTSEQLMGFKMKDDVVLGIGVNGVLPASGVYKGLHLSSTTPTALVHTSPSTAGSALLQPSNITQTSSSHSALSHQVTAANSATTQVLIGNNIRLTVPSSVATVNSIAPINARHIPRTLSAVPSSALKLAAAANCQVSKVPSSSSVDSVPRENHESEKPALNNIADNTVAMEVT
UniProt Q9NQZ7: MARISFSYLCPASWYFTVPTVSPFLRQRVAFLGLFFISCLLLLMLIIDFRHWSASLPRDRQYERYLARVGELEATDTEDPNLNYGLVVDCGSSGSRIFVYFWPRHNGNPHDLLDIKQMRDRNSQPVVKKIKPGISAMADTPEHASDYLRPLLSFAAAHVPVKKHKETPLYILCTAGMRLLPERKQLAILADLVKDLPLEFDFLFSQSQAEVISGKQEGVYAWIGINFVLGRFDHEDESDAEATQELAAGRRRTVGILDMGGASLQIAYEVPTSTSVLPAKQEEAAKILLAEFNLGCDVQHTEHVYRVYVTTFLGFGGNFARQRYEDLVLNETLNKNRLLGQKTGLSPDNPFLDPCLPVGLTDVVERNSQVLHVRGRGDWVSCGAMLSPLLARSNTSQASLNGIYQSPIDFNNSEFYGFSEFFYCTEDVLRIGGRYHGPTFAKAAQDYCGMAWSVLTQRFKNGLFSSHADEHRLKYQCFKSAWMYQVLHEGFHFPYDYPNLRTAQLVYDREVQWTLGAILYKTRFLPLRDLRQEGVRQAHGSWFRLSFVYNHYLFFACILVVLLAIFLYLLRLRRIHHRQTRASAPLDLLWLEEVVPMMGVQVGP
UniProt Q8TE68: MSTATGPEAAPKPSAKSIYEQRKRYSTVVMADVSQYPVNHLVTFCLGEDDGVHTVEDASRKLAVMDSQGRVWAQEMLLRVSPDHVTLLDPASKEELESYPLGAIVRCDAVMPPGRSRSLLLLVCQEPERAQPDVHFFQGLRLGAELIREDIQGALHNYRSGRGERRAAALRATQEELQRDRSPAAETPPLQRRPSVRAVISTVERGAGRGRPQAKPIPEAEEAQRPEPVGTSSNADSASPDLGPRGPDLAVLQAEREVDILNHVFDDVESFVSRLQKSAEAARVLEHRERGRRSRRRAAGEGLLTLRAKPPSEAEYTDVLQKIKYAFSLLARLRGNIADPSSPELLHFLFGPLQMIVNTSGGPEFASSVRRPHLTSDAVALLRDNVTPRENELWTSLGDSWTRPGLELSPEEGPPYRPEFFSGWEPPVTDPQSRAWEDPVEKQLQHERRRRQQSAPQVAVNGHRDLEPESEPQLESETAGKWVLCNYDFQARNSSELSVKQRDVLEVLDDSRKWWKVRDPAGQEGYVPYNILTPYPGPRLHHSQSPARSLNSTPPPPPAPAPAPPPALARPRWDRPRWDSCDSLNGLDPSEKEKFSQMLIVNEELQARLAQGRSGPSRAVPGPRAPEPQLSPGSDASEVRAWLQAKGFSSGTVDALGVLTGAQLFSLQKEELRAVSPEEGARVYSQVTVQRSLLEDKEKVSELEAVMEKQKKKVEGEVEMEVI
UniProt O75822, whole entry, looked up: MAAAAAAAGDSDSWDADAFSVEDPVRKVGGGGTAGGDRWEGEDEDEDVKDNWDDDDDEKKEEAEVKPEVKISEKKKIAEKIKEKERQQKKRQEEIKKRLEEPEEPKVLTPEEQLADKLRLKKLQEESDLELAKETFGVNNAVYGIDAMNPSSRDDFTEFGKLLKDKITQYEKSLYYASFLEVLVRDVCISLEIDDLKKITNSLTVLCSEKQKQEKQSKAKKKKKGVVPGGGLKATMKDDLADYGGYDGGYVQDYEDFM
UniProt P11171, whole entry, looked up: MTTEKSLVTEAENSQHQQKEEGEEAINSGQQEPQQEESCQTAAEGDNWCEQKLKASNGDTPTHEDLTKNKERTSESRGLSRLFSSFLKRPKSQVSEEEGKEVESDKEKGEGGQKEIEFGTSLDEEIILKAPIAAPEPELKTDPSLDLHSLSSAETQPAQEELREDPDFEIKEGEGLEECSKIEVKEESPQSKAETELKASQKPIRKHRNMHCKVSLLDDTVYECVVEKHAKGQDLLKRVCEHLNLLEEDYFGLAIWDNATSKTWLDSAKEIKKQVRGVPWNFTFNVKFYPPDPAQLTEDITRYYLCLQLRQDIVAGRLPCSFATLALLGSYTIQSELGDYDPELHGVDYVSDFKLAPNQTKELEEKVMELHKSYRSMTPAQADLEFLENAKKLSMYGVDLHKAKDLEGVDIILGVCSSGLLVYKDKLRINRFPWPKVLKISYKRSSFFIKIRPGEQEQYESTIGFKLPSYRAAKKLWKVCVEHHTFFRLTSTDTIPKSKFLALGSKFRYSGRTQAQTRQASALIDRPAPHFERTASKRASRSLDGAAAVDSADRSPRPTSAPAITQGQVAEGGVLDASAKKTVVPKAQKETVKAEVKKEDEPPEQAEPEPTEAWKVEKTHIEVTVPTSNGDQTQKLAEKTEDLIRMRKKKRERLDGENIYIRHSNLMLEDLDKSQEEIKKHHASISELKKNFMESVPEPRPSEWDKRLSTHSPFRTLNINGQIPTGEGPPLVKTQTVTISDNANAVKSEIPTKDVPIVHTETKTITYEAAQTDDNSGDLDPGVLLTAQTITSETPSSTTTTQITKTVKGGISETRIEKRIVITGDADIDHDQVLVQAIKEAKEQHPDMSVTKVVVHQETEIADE
UniProt O60516: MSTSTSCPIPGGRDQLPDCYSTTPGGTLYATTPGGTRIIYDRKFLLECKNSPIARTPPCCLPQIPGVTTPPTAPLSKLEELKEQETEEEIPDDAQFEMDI

Experiments:
Assay in all cases: log2 fold change, soluble protein after heating vs DMSO (PISA); higher = thermal stabilisation; K562 lysate, 10 uM; active = over 0.2 and 3.5 SD of the protein, either way, in both replicates (recomputed)
erlotinib = compound: C#Cc1cccc(Nc2ncnc3cc(OCCOC)c(OCCOC)cc23)c1 [erlotinib]
Procedure, shortened: (§1)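 To prepare the extract, K562 pellets were dounce-homogenised in PBS pH 7.4 with 1 mM MgCl2, giving crude material at 1 mg/mL protein. This was treated with 10 μM compound for 30 min, then heated in aliquots for 3 min over 48°C-58°C before pooling and addition of NP-40 to 0.5% at 4°C. Centrifugation at 21,000xg for 90 min left soluble protein in the supernatant, which TMTpro 16plex LC-MS/MS quantified with equalised channel sums. Results are log-two fold changes in thermal stability compared with solvent controls, from duplicates.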

[1] = compound: C1=CC(=CC=C1C2=NC3=C(N2)C=C(C=C3)C(=O)N)OC4=CC=C(C=C4)Cl
Procedure, shortened: as §1

[2] = compound: C1=CC2=NC=CN=C2C=C1/C=C/3\C(=O)NC(=O)S3
Procedure, shortened: as §1

[3] = compound: C1=CC=C(C=C1)C2=NC(=C(N2)C3=CC=NC=C3)C4=CC(=C(C=C4)Cl)O
Procedure, shortened: as §1

[4] = compound: C1CCN(C1)C(=O)NC2=CC=CC(=C2)NC3=NC=C(C(=N3)NCCC4=CN=CN4)Br
Procedure, shortened: as §1

[5] = compound: C1CN(CCC1(CC2=CC=C(C=C2)Cl)N)C3=NC=NC4=C3C=CN4
Procedure, shortened: as §1

IRAK-1-4 Inhibitor I = compound: C1COCCN1CCN2C3=CC=CC=C3N=C2NC(=O)C4=CC(=CC=C4)[N+](=O)[O-] [IRAK-1-4 Inhibitor I]
Procedure, shortened: as §1

ibrutinib = compound: C=CC(=O)N1CCC[C@@H](n2nc(-c3ccc(Oc4ccccc4)cc3)c3c(N)ncnc32)C1 [ibrutinib]
Procedure, shortened: as §1

[6] = compound: CC(=O)c1cnc2ccc(-c3cc(Cl)c(O)c(Cl)c3)nc2c1N[C@H]1CC[C@H](CN(C)C)CC1
Procedure, shortened: as §1

ralimetinib = compound: CC(C)(C)Cn1c(N)nc2ccc(-c3[nH]c(C(C)(C)C)nc3-c3ccc(F)cc3)nc21 [ralimetinib]
Procedure, shortened: as §1

[7] = compound: CC(C)(O)CC(=O)NCCn1ccc2ncnc(Nc3ccc(Oc4cccc(C(F)(F)F)c4)c(Cl)c3)c21
Procedure, shortened: as §1

[8] = compound: CC(C)C1=C2N=C(C=C(N2N=C1)NCC3=CC=CC=C3)NCCCCCCN
Procedure, shortened: as §1

[9] = compound: CC1=C(C(CC(=O)N1)C2=CC=C(C=C2)C(F)(F)F)C(=O)NC3=C(C=C4C(=C3)C=NN4)F
Procedure, shortened: as §1

[10] = compound: CC1=C(C2=C(C=C1)C(=O)C3=CC=CC=C3N2CCCN)C
Procedure, shortened: as §1

[11] = compound: CC1=C(C=C(C=C1)NC(=O)C2=CC(=CC=C2)C(C)(C)C#N)NC3=CC4=C(C=C3)N=CN(C4=O)C
Procedure, shortened: as §1

[12] = compound: CC1=C(C=C(C=C1)NC(=O)C2=CC(=CC=C2)N(C)C)NC(=O)C3=CC=C(C=C3)O
Procedure, shortened: as §1

[13] = compound: CC1=CC=C(C=C1)SC2=C3C=C(SC3=CN=C2)C(=O)N
Procedure, shortened: as §1

[14] = compound: C/C(=N\NC(=O)C1=CC(=CC=C1)S(=O)(=O)N2CCOCC2)/C3=C(C=CC(=C3)Cl)O
Procedure, shortened: as §1

[15] = compound: C1=CC2=C(C=CC(=C2)/C=C\3/C(=O)NC(=NCC4=CC=CS4)S3)N=C1
Procedure, shortened: as §1

[16] = compound: C1=CC=C2C(=C1)C3=NNC4=CC=CC(=C43)C2=O
Procedure, shortened: as §1

Measured: log2 fold change

EPS8L2 (UniProt Q9H6S3)
inactive: erlotinib 0.082 | [1] 0.009 | [2] 0.037 | [3] 0.133 | [4] -0.108 | [5] 0.055 | IRAK-1-4 Inhibitor I -0.086 | ibrutinib -0.041 | [6] -0.026 | ralimetinib -0.028 | [7] -0.021 | [8] 0.002 | [9] 0.031 | [10] -0.002 | [11] -0.054 | [12] -0.084 | [13] 0.015

EIF4A2 isoform 2 (UniProt Q14240)
inactive: erlotinib -0.007 | [14] 0.027 | [1] -0.037 | [15] -0.006 | [2] 0.02 | [3] -0.008 | [16] 0.004 | [4] 0.006 | [5] -0.007 | IRAK-1-4 Inhibitor I -0.018 | ibrutinib 0.019 | [6] 0.02 | ralimetinib 0.015 | [7] 0.016 | [8] -0.033 | [9] -0.007 | [10] 0.016 | [11] -0.017 | [12] -0.025 | [13] 0.02

EIF4EBP1 (UniProt Q13541)
inactive: erlotinib 0.018 | [14] 0.123 | [1] -0.066 | [15] -0.001 | [2] -0.036 | [3] 0.015 | [16] -0.058 | [4] 0.039 | [5] 0.011 | IRAK-1-4 Inhibitor I -0.02 | ibrutinib -0.016 | [6] -0.041 | ralimetinib -0.037 | [7] 0.011 | [8] -0.007 | [9] -0.059 | [10] -0.02 | [11] 0.056 | [12] 0.006 | [13] -0.002

ENY2 (UniProt Q9NPA8)
inactive: erlotinib 0.033 | [14] 0.03 | [1] -0.015 | [15] 0.002 | [2] -0.026 | [3] 0.043 | [16] 0.081 | [4] 0.104 | [5] -0.087 | IRAK-1-4 Inhibitor I -0.019 | ibrutinib 0.161 | [6] 0.038 | ralimetinib -0.021 | [7] 0.057 | [8] 0 | [9] -0.069 | [10] 0.066 | [11] 0.075 | [12] -0.052 | [13] 0.035

EPB41L5 (UniProt Q9HCM4)
inactive: erlotinib 0.075 | [1] -0.012 | [2] 0.028 | [4] -0.167 | [5] -0.01 | ibrutinib 0.012 | [6] 0.156 | [8] 0.022 | [11] -0.002 | [13] -0.105

EPN2 (UniProt I3L356)
inactive: [2] -0.143 | ibrutinib 0.105 | [6] -0.021 | [9] 0.102 | [13] 0.097

EML5 isoform 5 (UniProt Q05BV3)
inactive: erlotinib -0.018 | [1] -0.007 | [3] -0.079 | IRAK-1-4 Inhibitor I -0.033 | [6] -0.02 | ralimetinib 0.081 | [7] 0.058 | [8] 0.032 | [9] 0.02 | [10] -0.005 | [11] 0.037 | [12] -0.029 | [13] 0.016

EIF3I (UniProt Q5TFK1)
inactive: [6] 0.266 | [9] -0.661 | [13] -0.059

ENTR1 (UniProt Q96C92)
inactive: [14] -0.018 | [15] -0.028 | [3] 0.117 | [16] 0.022 | [4] 0.06 | [5] 0.059 | IRAK-1-4 Inhibitor I -0.075 | ralimetinib -0.012 | [7] -0.023 | [9] 0 | [11] 0.106 | [12] -0.052

EPC2 (UniProt Q52LR7)
inactive: [14] -0.379 | [15] -0.061 | [2] -0.05 | [16] -0.068 | [4] -0.027 | [5] -0.097 | ibrutinib 0.126 | [6] -0.047 | [10] -0.018 | [11] 0.039 | [13] 0.041

EIF2AK3 (UniProt Q9NZJ5)
inactive: erlotinib -0.014 | [1] 0.015 | [3] -0.049 | IRAK-1-4 Inhibitor I -0.044 | [6] 0.003 | ralimetinib 0.039 | [7] -0.191 | [8] 0.012 | [9] -0.052 | [10] 0.037 | [12] -0.061 | [13] -0.07

EPC1 (UniProt Q9H2F5)
inactive: [2] 0.028 | ibrutinib 0.154 | [11] -0.165

ENTPD6 (UniProt O75354)
inactive: erlotinib -0.017 | [1] -0.085 | [2] -0.041 | [3] 0.034 | IRAK-1-4 Inhibitor I 0.066 | ibrutinib -0.204 | [6] 0.118 | ralimetinib -0.09 | [7] -0.051 | [8] -0.008 | [10] 0.003 | [11] -0.026 | [12] 0.035 | [13] -0.004

EIF3G (UniProt K7ENA8)
inactive: [2] 0.065 | ibrutinib 0.111 | [6] 0.135 | [10] 0.088 | [13] 0.022

ENTPD7 (UniProt Q9NQZ7)
inactive: [14] -0.042 | [15] 0.105 | [16] -0.03 | [4] 0.072 | [5] 0.011 | [6] 0.155 | [9] -0.049 | [13] -0.239

EMC1 (UniProt H7C5A2)
inactive: erlotinib 0.028 | [1] 0.063 | [3] 0.1 | IRAK-1-4 Inhibitor I -0.011 | [6] -0.335 | ralimetinib -0.172 | [7] -0.129 | [8] 0 | [10] -0.15 | [11] 0.065 | [12] 0.078 | [13] -0.232

EIF4G3, A0A0A0MSA7
inactive: [3] 0.091 | IRAK-1-4 Inhibitor I 0.275 | ralimetinib -0.096 | [7] -0.111 | [10] -0.143 | [12] 0.031

EPS8L1 (UniProt Q8TE68)
inactive: [14] 0.097 | [15] -0.028 | [2] -0.048 | [3] 0.024 | [16] -0.081 | [4] 0.081 | [5] -0.107 | IRAK-1-4 Inhibitor I 0.057 | ibrutinib 0.033 | ralimetinib 0.078 | [7] 0.039 | [10] -0.096 | [11] -0.042 | [12] -0.034

EIF2B5, A0A3B3ITK8
inactive: [6] 0.015 | [9] 0.037 | [13] -0.104

EIF3J isoform 2 (UniProt O75822)
inactive: [14] 0.047 | [15] 0.005 | [3] -0.001 | [16] -0.065 | [4] -0.073 | [5] 0.101 | IRAK-1-4 Inhibitor I 0.007 | [6] -0.017 | ralimetinib -0.004 | [7] 0.012 | [12] 0.065 | [13] -0.013

ELOVL5 isoform 2 (UniProt Q9NYP7)
inactive: [14] -0.012 | [15] 0.057 | [2] 0.076 | [3] -0.065 | [16] -0.185 | [4] -0.04 | [5] -0.009 | IRAK-1-4 Inhibitor I 0.069 | ibrutinib -0.144 | [6] -0.008 | ralimetinib 0.054 | [7] -0.159 | [9] 0.034 | [10] 0.077 | [11] -0.005 | [12] 0.071 | [13] -0.038

2 successive records out of the list so far:
EIF2B5, A0A3B3ITK8
inactive: [6] 0.015 | [9] 0.037 | [13] -0.104

EIF3J isoform 2 (UniProt O75822)
inactive: [14] 0.047 | [15] 0.005 | [3] -0.001 | [16] -0.065 | [4] -0.073 | [5] 0.101 | IRAK-1-4 Inhibitor I 0.007 | [6] -0.017 | ralimetinib -0.004 | [7] 0.012 | [12] 0.065 | [13] -0.013

Additional entries

EPB41 isoform 4 (UniProt P11171)
inactive: erlotinib -0.128 | [1] -0.054 | [3] -0.012 | IRAK-1-4 Inhibitor I 0.002 | [6] 0.048 | ralimetinib -0.056 | [7] -0.018 | [8] 0.148 | [9] -0.012 | [11] 0.042 | [12] -0.001 | [13] -0.004

EIF4B (UniProt F8VP89)
inactive: [2] 0.031 | ibrutinib -0.019 | [6] -0.01 | [10] 0.149 | [11] 0.368 | [13] 0.202

EPHB6 (UniProt O15197)
inactive: [14] 0.035 | [15] -0.098 | [3] 0.246 | [16] 0.011 | [4] 0.032 | [5] -0.064 | IRAK-1-4 Inhibitor I 0.109 | ralimetinib -0.012 | [7] 0.023 | [9] 0.059 | [12] -0.217

ENO3 (UniProt K7EKN2)
inactive: [6] 0.052 | [13] 0.05

EIF4EBP3 (UniProt O60516)
inactive: erlotinib 0.129 | [1] 0.005 | [8] -0.047
